Measurements as given in article PMC6513865.

By UniProt entry, the sequences of proteins in these tests, tags left out. Residues count along the entry.
UniProt Q08345, residues 19-913: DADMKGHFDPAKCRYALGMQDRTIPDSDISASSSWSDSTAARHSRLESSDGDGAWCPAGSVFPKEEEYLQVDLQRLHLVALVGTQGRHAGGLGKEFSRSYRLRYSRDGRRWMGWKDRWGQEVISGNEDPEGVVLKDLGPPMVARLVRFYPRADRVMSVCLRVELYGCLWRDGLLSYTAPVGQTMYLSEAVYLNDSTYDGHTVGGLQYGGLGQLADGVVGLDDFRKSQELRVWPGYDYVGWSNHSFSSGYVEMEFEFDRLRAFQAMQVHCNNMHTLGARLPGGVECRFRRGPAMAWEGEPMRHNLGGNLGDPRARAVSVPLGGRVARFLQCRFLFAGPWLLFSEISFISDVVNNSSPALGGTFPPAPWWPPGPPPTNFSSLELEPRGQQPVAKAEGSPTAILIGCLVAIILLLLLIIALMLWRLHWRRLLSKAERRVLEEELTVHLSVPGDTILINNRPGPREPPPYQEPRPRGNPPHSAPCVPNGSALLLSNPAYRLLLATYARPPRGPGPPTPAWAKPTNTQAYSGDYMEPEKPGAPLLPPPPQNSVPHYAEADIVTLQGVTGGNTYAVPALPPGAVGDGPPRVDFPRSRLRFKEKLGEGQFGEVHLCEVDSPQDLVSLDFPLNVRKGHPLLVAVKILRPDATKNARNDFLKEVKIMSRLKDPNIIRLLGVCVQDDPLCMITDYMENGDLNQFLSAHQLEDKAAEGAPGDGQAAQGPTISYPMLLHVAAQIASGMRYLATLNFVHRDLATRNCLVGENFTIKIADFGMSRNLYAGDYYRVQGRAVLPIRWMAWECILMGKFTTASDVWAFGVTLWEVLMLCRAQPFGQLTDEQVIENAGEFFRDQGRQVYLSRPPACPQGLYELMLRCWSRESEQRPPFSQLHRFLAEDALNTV

Biological target: CD167a (Discoidin domain receptor 1), b isoform, overexpressed from pHAGE-V5-CD167a (human) (UniProt Q08345)
Experiment: affinity purification with mass spectrometry; lysate of CD167a-overexpressing T24 cells; anti-CD167a antibody with protein A/G agarose beads, 4 h at 4 °C, beads washed 4 times with RIPA buffer; IP samples analysed by mass spectrometry (iBAQ)

- binding: binds
B1: CDC37 (protein, UniProt Q16543 1-378)
chain: MVDYSVWDHIEVSDDEDETHPNIDTASLFRWRHQARVERMEQFQKEKEELDRGCRECKRKVAECQRKLKELEVAEGGKAELERLQAEAQQLRKEERSWEQKLEEMRKKEKSMPWNVDTLSKDGFSKSMVNTKPEKTEEDSEEVREQKHKTFVEKYEKQIKHFGMLRRWDDSQKYLSDNVHLVCEETANYLVIWCIDLEVEEKCALMEQVAHQTIVMQFILELAKSLKVDPRACFRQFFTKIKTADRQYMEGFNDELEAFKERVRGRAKLRIEKAMKEYEEEERKKRLGPGGLDPVEVYESLPEELQKCFDVKDVQMLQDAISKMDPTDAKYHMQRCIDSGLWVPNSKASEAKEGEEAGPGDPLLEAVPKTGDEKDVSV

No constants are given. Whether binding was seen depends on the method and setting. Binding seen in cells or lysates may run through a third protein. Here binding means that the protein was enriched with, or labelled near, the bait; the list need not be complete.
